No constants are given. Whether binding was seen depends on the method and setting. Some binding calls cover weakened binding; strength is not graded here. Sequences can lack the tags named with a protein.
Target: Maternal embryonic leucine zipper kinase (MELK) (UniProt Q14680)
Experiment: co-localisation by confocal immunofluorescence in MDA-MB-436 cells (GFP-PRR11); complex inferred

The chains behind the UniProt entries cited, without tags or fusion partners.
UniProt Q14680: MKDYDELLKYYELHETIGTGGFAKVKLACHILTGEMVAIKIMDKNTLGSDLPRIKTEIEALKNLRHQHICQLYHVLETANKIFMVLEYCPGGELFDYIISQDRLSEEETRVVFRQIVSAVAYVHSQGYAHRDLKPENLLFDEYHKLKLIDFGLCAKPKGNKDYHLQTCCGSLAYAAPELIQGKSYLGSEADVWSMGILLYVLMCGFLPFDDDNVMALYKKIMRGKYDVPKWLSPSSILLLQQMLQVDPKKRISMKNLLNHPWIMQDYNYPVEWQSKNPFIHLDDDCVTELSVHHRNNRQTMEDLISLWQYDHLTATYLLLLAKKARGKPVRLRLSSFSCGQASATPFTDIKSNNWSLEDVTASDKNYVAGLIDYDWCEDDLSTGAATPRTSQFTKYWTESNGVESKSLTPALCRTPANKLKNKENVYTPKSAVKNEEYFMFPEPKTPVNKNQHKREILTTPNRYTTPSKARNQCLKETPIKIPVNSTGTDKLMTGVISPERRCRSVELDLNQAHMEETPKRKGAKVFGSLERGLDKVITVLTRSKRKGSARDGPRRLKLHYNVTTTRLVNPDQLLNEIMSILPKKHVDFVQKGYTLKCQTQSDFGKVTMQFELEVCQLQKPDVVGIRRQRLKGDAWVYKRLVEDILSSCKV

B1: GFP-PRR11 (protein, UniProt Q96HE9 1-360, looked up, not shown: large carriers)
chain: MPKFKQRRRKLKAKAERLFKKKEASHFQSKLITPPPPPPSPERVGISSIDISQSRSWLTSSWNFNFPNIRDAIKLWTNRVWSIYSWCQNCITQSLEVLKDTIFPSRICHRELYSVKQQFCILESKLCKLQEALKTISESSSCPSCGQTCHMSGKLTNVPACVLITPGDSKAVLPPTLPQPASHFPPPPPPPPLPPPPPPLAPVLLRKPSLAKALQAGPLKKDGPMQITVKDLLTVKLKKTQSLDEKRKLIPSPKARNPLVTVSDLQHVTLKPNSKVLSTRVTNVLITPGKSQMDLRKLLRKVDVERSPGGTPLTNKENMETGTGLTPVMTQALRRKFQLAHPRSPTPTLPLSTSSFDEQN
B1 was tested, and the binding was “binds”.

From patent US20160222458A1
